In article PMC10655329:
No constants are given. Whether binding was seen depends on the method and setting. In cells and extracts the contact can be indirect. A yes stands for co-enrichment or nearness to the bait. Other partners may have been found. Sequences can lack the tags named with a protein.

The chains behind the UniProt entries cited, without tags or fusion partners.
UniProt P62993: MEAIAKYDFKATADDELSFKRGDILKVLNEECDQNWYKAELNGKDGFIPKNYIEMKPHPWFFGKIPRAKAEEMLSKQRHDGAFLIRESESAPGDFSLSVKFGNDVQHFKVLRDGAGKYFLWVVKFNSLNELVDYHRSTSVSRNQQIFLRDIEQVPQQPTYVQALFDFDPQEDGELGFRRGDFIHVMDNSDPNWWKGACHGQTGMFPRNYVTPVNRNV
UniProt Q07820: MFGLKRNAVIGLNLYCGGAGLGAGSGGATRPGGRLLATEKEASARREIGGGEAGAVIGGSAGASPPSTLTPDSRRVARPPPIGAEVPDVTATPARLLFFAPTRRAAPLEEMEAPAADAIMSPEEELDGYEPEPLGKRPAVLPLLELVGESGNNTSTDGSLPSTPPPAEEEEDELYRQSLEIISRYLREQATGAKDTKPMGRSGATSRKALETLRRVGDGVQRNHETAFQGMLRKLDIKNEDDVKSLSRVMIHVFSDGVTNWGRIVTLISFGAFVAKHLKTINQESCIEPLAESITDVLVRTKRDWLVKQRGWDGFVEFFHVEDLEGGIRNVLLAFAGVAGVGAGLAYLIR
UniProt P12270: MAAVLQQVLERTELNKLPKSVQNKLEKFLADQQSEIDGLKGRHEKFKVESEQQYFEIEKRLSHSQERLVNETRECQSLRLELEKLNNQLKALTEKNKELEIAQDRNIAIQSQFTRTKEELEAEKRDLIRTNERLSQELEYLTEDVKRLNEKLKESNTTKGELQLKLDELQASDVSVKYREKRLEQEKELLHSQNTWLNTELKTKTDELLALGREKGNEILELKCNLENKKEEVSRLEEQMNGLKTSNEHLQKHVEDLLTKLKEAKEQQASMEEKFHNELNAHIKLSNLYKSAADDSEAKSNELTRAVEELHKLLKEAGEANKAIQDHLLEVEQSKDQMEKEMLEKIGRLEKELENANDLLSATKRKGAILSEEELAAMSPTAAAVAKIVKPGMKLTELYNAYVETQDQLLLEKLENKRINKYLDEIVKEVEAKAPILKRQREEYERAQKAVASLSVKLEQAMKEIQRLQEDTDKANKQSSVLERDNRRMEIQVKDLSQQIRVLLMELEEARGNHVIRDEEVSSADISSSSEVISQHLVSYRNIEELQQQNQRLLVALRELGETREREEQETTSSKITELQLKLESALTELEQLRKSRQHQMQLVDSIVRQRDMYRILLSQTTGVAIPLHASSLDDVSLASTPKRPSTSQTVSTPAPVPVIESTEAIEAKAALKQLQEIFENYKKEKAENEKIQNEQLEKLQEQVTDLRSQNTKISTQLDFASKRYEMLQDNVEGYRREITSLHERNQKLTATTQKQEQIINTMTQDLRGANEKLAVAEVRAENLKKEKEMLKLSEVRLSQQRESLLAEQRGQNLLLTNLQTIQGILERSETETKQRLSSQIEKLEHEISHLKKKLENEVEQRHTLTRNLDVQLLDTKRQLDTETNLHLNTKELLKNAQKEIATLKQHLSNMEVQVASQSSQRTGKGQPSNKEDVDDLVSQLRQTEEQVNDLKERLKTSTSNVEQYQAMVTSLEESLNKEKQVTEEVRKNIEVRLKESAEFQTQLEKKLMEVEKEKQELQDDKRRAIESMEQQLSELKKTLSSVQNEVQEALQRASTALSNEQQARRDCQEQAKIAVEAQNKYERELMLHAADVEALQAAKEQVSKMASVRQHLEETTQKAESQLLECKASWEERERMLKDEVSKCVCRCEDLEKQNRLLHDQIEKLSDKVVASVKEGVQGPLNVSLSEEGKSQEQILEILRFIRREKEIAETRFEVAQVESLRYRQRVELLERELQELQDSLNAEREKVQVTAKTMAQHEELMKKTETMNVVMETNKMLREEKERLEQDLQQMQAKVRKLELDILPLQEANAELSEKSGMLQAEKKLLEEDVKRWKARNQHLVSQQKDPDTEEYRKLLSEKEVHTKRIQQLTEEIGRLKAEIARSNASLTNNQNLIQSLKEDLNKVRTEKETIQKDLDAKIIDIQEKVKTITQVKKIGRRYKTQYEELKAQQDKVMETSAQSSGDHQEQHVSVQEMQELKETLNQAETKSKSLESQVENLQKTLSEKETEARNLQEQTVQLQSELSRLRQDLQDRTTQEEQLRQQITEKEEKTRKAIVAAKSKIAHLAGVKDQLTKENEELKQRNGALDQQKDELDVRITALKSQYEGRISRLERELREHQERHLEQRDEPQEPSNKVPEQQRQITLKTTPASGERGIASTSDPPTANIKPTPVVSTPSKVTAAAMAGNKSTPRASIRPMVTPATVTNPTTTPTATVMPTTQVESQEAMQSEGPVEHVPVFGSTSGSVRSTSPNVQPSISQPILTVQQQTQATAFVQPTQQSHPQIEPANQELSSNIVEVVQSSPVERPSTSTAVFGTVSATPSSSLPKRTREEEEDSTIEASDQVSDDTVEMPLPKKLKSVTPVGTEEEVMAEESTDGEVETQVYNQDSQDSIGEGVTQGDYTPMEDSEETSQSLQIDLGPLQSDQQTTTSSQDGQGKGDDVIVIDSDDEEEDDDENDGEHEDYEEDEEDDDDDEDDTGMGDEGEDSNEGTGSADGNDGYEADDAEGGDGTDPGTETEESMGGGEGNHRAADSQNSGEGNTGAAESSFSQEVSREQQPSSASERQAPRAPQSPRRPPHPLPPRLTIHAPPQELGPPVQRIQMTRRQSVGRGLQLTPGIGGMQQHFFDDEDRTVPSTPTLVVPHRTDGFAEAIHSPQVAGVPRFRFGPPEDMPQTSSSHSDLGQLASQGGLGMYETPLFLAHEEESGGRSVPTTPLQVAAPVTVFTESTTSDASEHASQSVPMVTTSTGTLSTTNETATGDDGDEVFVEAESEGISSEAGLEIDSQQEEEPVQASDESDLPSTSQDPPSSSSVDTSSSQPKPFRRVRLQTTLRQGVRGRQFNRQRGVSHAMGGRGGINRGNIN
UniProt P26599: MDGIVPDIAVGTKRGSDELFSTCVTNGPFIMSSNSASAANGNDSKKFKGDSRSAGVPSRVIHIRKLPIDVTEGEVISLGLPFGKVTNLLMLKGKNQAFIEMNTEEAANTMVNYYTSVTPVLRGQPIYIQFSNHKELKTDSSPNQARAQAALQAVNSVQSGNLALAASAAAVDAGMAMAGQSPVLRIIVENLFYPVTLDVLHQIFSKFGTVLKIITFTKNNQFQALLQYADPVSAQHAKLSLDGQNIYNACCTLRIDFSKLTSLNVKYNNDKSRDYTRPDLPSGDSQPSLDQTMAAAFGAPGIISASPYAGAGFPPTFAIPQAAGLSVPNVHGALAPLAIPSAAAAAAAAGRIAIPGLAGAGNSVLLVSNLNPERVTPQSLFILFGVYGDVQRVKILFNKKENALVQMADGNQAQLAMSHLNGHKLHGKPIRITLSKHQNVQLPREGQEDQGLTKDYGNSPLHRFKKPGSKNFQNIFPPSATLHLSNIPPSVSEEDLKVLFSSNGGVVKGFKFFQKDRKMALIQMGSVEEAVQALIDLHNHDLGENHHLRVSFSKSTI

The substances below were run against T1, Tripartite motif containing 59 (TRIM59), flag-tagged, over-expressed (UniProt Q8IWR1) (assay: affinity purification with mass spectrometry; lysate (Western and IP cell lysis buffer) of PASMCs infected with TRIM59 over-expression; immunoprecipitated with anti-flag antibody crosslinked to beads; eluted proteins identified by HPLC-MS/MS).
T1 sequence: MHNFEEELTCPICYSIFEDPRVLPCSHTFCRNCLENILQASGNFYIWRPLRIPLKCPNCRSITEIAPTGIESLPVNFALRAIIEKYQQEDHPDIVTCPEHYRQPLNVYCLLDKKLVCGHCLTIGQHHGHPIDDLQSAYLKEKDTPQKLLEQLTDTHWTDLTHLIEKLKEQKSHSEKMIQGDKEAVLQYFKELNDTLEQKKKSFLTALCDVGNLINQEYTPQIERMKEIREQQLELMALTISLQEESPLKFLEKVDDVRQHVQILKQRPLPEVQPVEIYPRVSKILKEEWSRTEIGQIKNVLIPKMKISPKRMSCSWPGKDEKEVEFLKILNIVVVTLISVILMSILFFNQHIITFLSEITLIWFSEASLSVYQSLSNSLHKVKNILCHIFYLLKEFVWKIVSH

binding	Substance
binds	Growth factor receptor-bound protein 2 (from UniProt P62993 1-217)
binds	Induced myeloid leukemia cell differentiation protein Mcl-1 (from UniProt Q07820 1-350)
binds	Nucleoprotein TPR (from UniProt P12270 1-2363)
binds	Polypyrimidine tract-binding protein 1 (from UniProt P26599 1-557)
